The campaign covered roughly 330,000 compounds. About 7,700 (2.3%) were called active. The inconclusive results got no clear call from the source; some entries with a clear call stand among them for comparison. Calls follow the shape of the dose curve; as a rule, active = well fitted inhibition curve with a large enough effect; inconclusive = small, poorly fitted or top-dose-only effect, or effect the other way; inactive = flat fitted curve, though single readings scatter. Potencies of inconclusive entries are doubtful fits and often do not repeat.
Experiment: qHTS screen for small molecules that inhibit ELG1-dependent DNA repair in human embryonic kidney (HEK293T) cells expressing luciferase-tagged ELG1; also: nearly all actives have a fitted effect of over 55% in size
Settings: HEK293T ELG1-luciferase reporter, luminescence, 16 h, DNA damage induced by 5-fluorouridine; activity change, negative = inhibition: at 46.1 µM (top of the series)
In short: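 HEK293T cells expressing luciferase-tagged ELG1 (2,000/well) received 5-Fluorouridine plus compound or DMSO for 16 hr at 37 °C. Luciferase was read by ONE-Glo luminescence after 30 min at room temperature.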
With `COc1ccc(/C=N/Nc2nc3ccccc3s2)cc1O` the Potency was inconclusive: 2.59 µM [activator, full curve].
With `COc1ccc(CCNC(=O)CNCC2CCCO2)cc1OC` (stereo not given) the Potency was inconclusive: 0.164 µM [inhibitor, single point].
For `Cc1noc(C)c1COc1ccc(C(=O)Nc2ccccn2)cc1`, the Potency was inconclusive: 23.1 µM [activator, single point].
In the case of `c1ccc(CNc2c3c(nc4ncnn24)CCCC3)nc1`, the Potency is reported as inconclusive: 25.9 µM [activator, partial curve, poor fit].
With `N#Cc1ccc(-c2ccc(F)cc2)nc1SCC(=O)Nc1sc2c(c1C#N)CCC2` the Potency was active: 6.51 µM.
In the case of `C[C@@H]1CN(C(=O)c2ccc(OC3CCN(S(=O)(=O)N(C)C)CC3)cc2)C[C@H](C)O1`, the Potency is reported as inconclusive: 23.1 µM [inhibitor, partial curve].
In the case of `Cn1c(-c2ccc(=O)[nH]c2)nc2ccccc21`, the Potency is reported as inconclusive: 29.1 µM [activator, single point].
With `CCCCOc1ccc(C(=O)Nc2ccc(N3CCN(C)CC3)cc2)cc1` the “activity change, negative = inhibition” value was inactive: 10.9%.
In the case of `Cc1ccc(NC(=O)[C@H](NC(=O)[C@@H]2Cc3ccccc3CN2)c2ccccc2)cc1`, the Potency is reported as inconclusive: 23.1 µM [activator, single point].
For `N#Cc1ccccc1OCC(=O)Nc1ccc(S(=O)(=O)N2CCOCC2)cc1`, the “activity change, negative = inhibition” value was inactive: -7.8%.
With `Cc1ccc(N2CCCC2=O)cc1S(=O)(=O)N1CCOCC1` the Potency was inconclusive: 14.6 µM [activator, partial curve, poor fit].
For `Cc1ccc(-n2nc(C(=O)O)c3ccccc3c2=O)cc1C`, the Potency was inconclusive: 29.1 µM [inhibitor, single point].
With `CC(=O)Nc1cccc(OC(=O)c2ccoc2C)c1` the Potency was inconclusive: 13 µM [activator, partial curve, poor fit].
With `Cn1c(=S)c2[nH]c(SCCN3CCCC3)nc2n(C)c1=O` the Potency was inconclusive: 6.51 µM [inhibitor, full curve].
With `O=C(Nc1ccc(Cl)cc1)/C(=C/c1cccc(O)c1)c1nc2ccccc2s1` the Potency was active: 25.9 µM.
With `CC(=O)N(C)c1ccc(NC(=O)Nc2ccccc2C)cc1` the Potency was inconclusive: 16.4 µM [activator, partial curve].
With `CC(=O)Oc1ccc(N2C(=O)c3cccc4c([N+](=O)[O-])ccc(c34)C2=O)cc1` the Potency was active: 18.3 µM.
In the case of `O=C(c1ccncc1)c1ccc(N2CCN(C3CC(=O)N(Cc4cccs4)C3=O)CC2)cc1` (stereo not given), the Potency is reported as inconclusive: 16.4 µM [inhibitor, single point].
For `CCc1c(O)nc(SCC(=O)Nc2nc3ccccc3s2)n(-c2ccc(C)cc2)c1=O`, the Potency was inconclusive: 16.4 µM [activator, partial curve].
With `COc1cccc(OC)c1C(=O)NC(=O)Oc1c(F)cccc1F` the “activity change, negative = inhibition” value was inactive: 13.9%.
For `S=C(Nc1ccccc1)c1nc2ccccc2s1`, the Potency was inconclusive: 13 µM [activator, partial curve].
For `O=C(COC(=O)c1ccc(N2CCCC2=O)cc1)c1ccccc1`, the Potency was inconclusive: 20.6 µM [activator, partial curve].
In the case of `Cc1nc2cc(N3CCN(C)CC3)c(NC(=O)Cc3ccccc3)cc2c(=O)n1Cc1ccccc1`, the Potency is reported as inconclusive: 13 µM [activator, partial curve, poor fit].
With `O=C(COC(=O)c1ccccc1C(=O)N1CCN(c2ccccc2)CC1)Nc1ccccc1` the Potency was inconclusive: 29.1 µM [inhibitor, single point].
With `Cc1nn(C)c(C)c1S(=O)(=O)N1CCC(C(=O)Nc2ccc3c(c2)OCCO3)CC1` the Potency was inconclusive: 16.4 µM [activator, partial curve].
For `CCN(CC)CCCC(C)NC(=O)c1ccc(C(F)(F)F)cc1` (stereo not given), the “activity change, negative = inhibition” value was inactive: 3.22%.
For `CC(=O)c1ccc(N(CC(=O)NC2CCCC2)C(=O)CCC(=O)Nc2cc(C)on2)cc1`, the “activity change, negative = inhibition” value was inactive: 14.2%.
For `CC(C)(C)c1csc(Sc2ccc([N+](=O)[O-])cn2)n1`, the Potency was inconclusive: 5.8 µM [activator, full curve, poor fit].
In the case of `c1cncc(-c2ccc3[nH]ccc3c2)c1`, the Potency is reported as inconclusive: 23.1 µM [activator, partial curve].
With `Cc1ccc(OCC(=O)Nc2ccc3c(c2)C(=O)N(CCC(=O)O)C3=O)cc1` the “activity change, negative = inhibition” value was inactive: 12.6%.
For `N#C/C(=N\Nc1ccc([N+](=O)[O-])cc1)C(N)=S`, the Potency was inconclusive: 4.61 µM [inhibitor, single point].
For `O=C(O)CSCc1cnn(-c2ccccc2)c1-n1cccc1`, the Potency was inconclusive: 29.1 µM [inhibitor, single point].
With `O=C(CSc1nnc(Nc2ccccc2)s1)NC1CCCC1` the “activity change, negative = inhibition” value was inactive: 14%.
For `COc1ccc(NS(=O)(=O)c2ccc3nc(COc4ccc(C#N)cc4)[nH]c3c2)cc1`, the Potency was inconclusive: 11.6 µM [inhibitor, partial curve].
For `COc1cc(COC(=O)Oc2ccc(CNC(C)=O)cc2OC)c([N+](=O)[O-])cc1OC`, the “activity change, negative = inhibition” value was inactive: 10.5%.
In the case of `O=Cc1cccc(OC(=O)/C=C/c2ccco2)c1`, the Potency is reported as inconclusive: 23.1 µM [activator, partial curve].
In the case of `CC(C)Cc1nnc(NC(=O)c2cc([N+](=O)[O-])ccc2N2CCOCC2)s1`, the “activity change, negative = inhibition” value is reported as inactive: -4.67%.
With `O=C1/C(=C\c2ccc(O)cc2)SC(=S)N1c1cccnc1` the “activity change, negative = inhibition” value was inactive: 9.49%.
In the case of `Clc1ccc(C[n+]2cc(-c3ccccc3)n3c2CCC3)cc1`, the Potency is reported as active: 2.91 µM.
In the case of `Cc1ccc(N/C=C/C(=O)c2ccc(C)cc2)cc1`, the Potency is reported as inconclusive: 2.31 µM [activator, full curve].
In the case of `CC[C@@]1(C(=O)OC)N[C@H](CN(C)C(=O)Nc2ccc(C)cc2)[C@@H]2C(=O)N(Cc3ccccc3)C(=O)[C@@H]21`, the Potency is reported as inconclusive: 32.6 µM [activator, partial curve, poor fit].
In the case of `C=CCN1CC(O)=C(c2nc3ccccc3[nH]2)C1=N`, the Potency is reported as inconclusive: 23.1 µM [activator, partial curve].
With `O=C(O)COc1ccccc1/C=N/NC(=O)c1ccc2c(c1)OCCO2` the “activity change, negative = inhibition” value was inactive: 22.9%.
In the case of `Cc1sc2ncnc(N3CCN(S(=O)(=O)c4ccccc4)CC3)c2c1C`, the Potency is reported as inconclusive: 7.3 µM [inhibitor, partial curve].
With `COc1cc(-c2nnc(SCC(=O)N(Cc3ccccc3)C(C)(C)C)o2)cc(OC)c1OC` the Potency was active: 20.6 µM.
In the case of `CCOC(=O)c1c(C)[nH]c(C(=O)COC(=O)c2cc(C)oc2C)c1C`, the Potency is reported as inconclusive: 28.2 µM [activator, single point].
For `Cc1ccc(OCC(=O)c2c[nH]c3ccccc23)c([N+](=O)[O-])n1`, the Potency was inconclusive: 16.4 µM [activator, partial curve].
For `O=C(NN=C(Cc1ccccc1)Cc1ccccc1)c1ccccc1F`, the Potency was inconclusive: 29.1 µM [activator, single point].
For `CNCCOc1ccc(Cl)c(Cl)c1`, the “activity change, negative = inhibition” value was inactive: 0.184%.
For `O=C(/C=C/c1cccnc1)c1ccc(NC(=O)c2cccc(Br)c2)cc1`, the Potency was inconclusive: 25.9 µM [activator, single point].
With `O=C(O)/C=C/c1cn(Cc2ccccc2)nc1-c1cccnc1` the Potency was inconclusive: 32.6 µM [activator, partial curve, poor fit].
In the case of `Cc1ccc(-c2[nH]c(-c3ccc(Cl)cc3)nc2SCC(=O)NCC2CCCO2)cc1` (stereo not given), the Potency is reported as inconclusive: 11.6 µM [inhibitor, partial curve].
With `Cc1nnc2c3cnn(-c4ccc(Cl)cc4)c3ncn12` the Potency was inconclusive: 9.2 µM [activator, partial curve].
In the case of `Cc1ccc2nc(NC(=O)CN(C)S(=O)(=O)c3ccc(Br)s3)sc2c1`, the Potency is reported as inconclusive: 16.4 µM [inhibitor, single point].
In the case of `CC(=O)Nc1ccc(S(=O)(=O)n2cnc(C)c2)cc1`, the “activity change, negative = inhibition” value is reported as inactive: 13%.
In the case of `O=C(Nc1ccc(Cl)c(S(=O)(=O)N2CCOCC2)c1)C1CCCC1`, the “activity change, negative = inhibition” value is reported as inactive: 0%.
In the case of `Cc1ccc(S(=O)(=O)N2C[C@@H]3CCCC[C@@H]3[C@@H](C)[C@H]2CC(=O)c2ccccc2)cc1`, the “activity change, negative = inhibition” value is reported as inactive: 6.78%.
In the case of `O=c1[nH]c(C2CCN(S(=O)(=O)c3ccc(S(=O)(=O)NC4CC4)cc3)CC2)nc2c1nnn2Cc1ccccc1`, the Potency is reported as active: 18.3 µM.
With `COc1cc(/C=N/Nc2ncnc3sc4c(c23)CCC4)ccc1O` the Potency was inconclusive: 29.1 µM [inhibitor, single point].
With `NNC(=O)c1[nH]c(-c2ccccc2)cc1-c1ccccc1` the “activity change, negative = inhibition” value was inactive: -17.6%.
For `CN(C)Cc1c(O)c(Cl)cc2c3c(c(=O)oc12)CCCC3`, the “activity change, negative = inhibition” value was inactive: 11.1%.
In the case of `Cc1cccn2c(=O)c(C=O)c(N3CCC4(CC3)OCCO4)nc12`, the “activity change, negative = inhibition” value is reported as inactive: 0.798%.
In the case of `CNC(=S)NNC(=O)c1sccc1OCc1ccc(Cl)cc1Cl`, the Potency is reported as inconclusive: 0.58 µM [activator, single point].
For `Cc1c(C(=O)N2CCN(S(=O)(=O)c3ccccc3F)CC2)oc2c(Cl)cccc12`, the Potency was inconclusive: 13 µM [inhibitor, partial curve].
For `Cc1cccc(NC(=O)C2(c3ccccc3)CC2(Cl)Cl)c1` (stereo not given), the “activity change, negative = inhibition” value was inactive: 9.21%.
For `O=C(COc1cccc(NC(=O)c2cccc([N+](=O)[O-])c2)c1)c1ccc(F)cc1`, the Potency was inconclusive: 29.1 µM [inhibitor, single point].
With `O=S(=O)(c1ccc(N2CCN(S(=O)(=O)c3ccc4c(c3)OCCO4)CC2)nc1)N1CCCC1` the Potency was active: 8.2 µM.
In the case of `Cn1c(C(=O)N2CCCC(C(=O)NCc3ccc4c(c3)OCO4)C2)cc2sccc21` (stereo not given), the Potency is reported as inconclusive: 20.6 µM [inhibitor, single point].
With `CCCOc1ccc(N2C(=O)CC(N3CCOCC3)C2=O)cc1` (stereo not given) the Potency was inconclusive: 29.1 µM [activator, partial curve, poor fit].
In the case of `Cc1cc(-c2cc(C(=O)NC3CCCC3)on2)nc(NCC2CC2)n1`, the Potency is reported as inconclusive: 20.6 µM [activator, single point].

Source: PubChem BioAssay AID504467 (National Center for Advancing Translational Sciences (NCATS), 2011)
% is scaled to controls: 0 for no effect and ±100 for the full control effect; potency is read from the fitted curve at half-maximal effect.
